# Patent US20210032655A1
# These are yes or no findings as the source states them, for the method shown. Some binding calls cover weakened binding; strength is not graded here.
# Tests used:
# [1] = target: minocycline dAb-Fc; test: peptide binding to minocycline dAb versus control antibody, FIG. 4
# [2] = target: minocycline dAb-Fc; test: phage-peptide colony screening on bead-immobilised dAb-Fc, with and without 1 µM minocycline
# [3] = target: minocycline dAb-Fc; test: statement in Example 2 about the dAb/peptide platform; method not given
Binder,binding [1],binding [2],binding [3]
ACPHWAQAFC [peptide … (SEQ ID NO: 35)],binds,binds,binds
ACPGWARAFC [peptide … (SEQ ID NO: 34)],binds,binds,binds

# Results, then the binder that gave them:
binding [1],binding [2],binding [3],Binder
binds,binds,binds,ACPPWAYSFC [peptide … (SEQ ID NO: 37)]
binds,binds,binds,ACPQWAMMFC [peptide … (SEQ ID NO: 36)]
